{"source": "paper PMC5746551", "binders": {"B1": {"name": "S^35-labelled Sas6, generated by coupled IVTT, Q9VAC8 1-472 (protein)", "chain": "MWPPGSEDSYSAKMDYGKSVVNILPSVEMLVNFNGEMTRSSKRSCLLYAERVDFKELLQLRLTEKSDQRRMYITTVDSASFQDLKQDQSLNVSFSGFIDNVVRMLKDCQSGKLELHLTTRDQNLSSGREVHDYYLQFVEIRSFKNLVHLSLPCRSAPLNTVLFYINSMLEASHKKQYILEQSMQQMQAEINAQRAHAERLTTENTNIREALAENTRILEEKHAAEVHQYQEKLSKINEQRSNELERNRRAISGFQAQLDKASLEKAELKSAQEQAEKRCQTLSEELSCCKARVCTLKEQNDKLHGDVANIRKHERKLEYKIEDLKQHTVELQEHIQKGNKEKANIAAELEAEKKILHTKRQALEMASEEISKANQIIVKQSQELLNLKKTIAWRTEVALQQEKAVQAKESLLSLRENELREARITIEKLREEIPQQLQSMRNFAQGLEQKYSKQILILKERLAIPTGKENRR", "modifications": "here or on the partner: S^35-labelled"}}, "target": "T1, GST-tagged wild-type Ana2, treated with kinase-dead Plk4 (not phosphorylated) (Drosophila melanogaster), Q9XZ31", "T1 chain": "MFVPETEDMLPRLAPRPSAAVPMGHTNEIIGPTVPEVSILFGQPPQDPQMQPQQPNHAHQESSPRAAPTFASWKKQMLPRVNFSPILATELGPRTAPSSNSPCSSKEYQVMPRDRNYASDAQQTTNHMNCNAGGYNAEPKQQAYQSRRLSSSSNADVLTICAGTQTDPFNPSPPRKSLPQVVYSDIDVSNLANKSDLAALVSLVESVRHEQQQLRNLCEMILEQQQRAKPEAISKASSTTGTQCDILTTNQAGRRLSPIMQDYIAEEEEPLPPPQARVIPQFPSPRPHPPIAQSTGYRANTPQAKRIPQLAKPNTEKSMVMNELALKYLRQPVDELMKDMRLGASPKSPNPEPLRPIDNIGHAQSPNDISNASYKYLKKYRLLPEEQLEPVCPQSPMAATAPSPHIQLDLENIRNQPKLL", "test": "pull-down; GST-tagged wild-type or S38A Ana2 from E. coli immobilized on beads, treated with active or kinase-dead Plk4, then incubated with S^35-labelled Sas6 from coupled IVTT; only the target purified", "settings": "remark: other sources report otherwise", "note": "No constants are given. Whether binding was seen depends on the method and setting. Binding seen in cells or lysates may run through a third protein. Sequences can lack the tags named with a protein.", "data": [{"binder": "B1", "values": [{"measurement": "binding", "result": "no binding"}]}]}
